Assay results reported in PubChem BioAssay AID2685 (National Center for Advancing Translational Sciences (NCATS), 2010).
About 2,100 (0.66%) of roughly 320,000 compounds were called active. The shares of active, inactive and inconclusive entries below differ from those in the screen. Calls come from the whole dose curve; as a rule, active = well fitted inhibition curve with a large enough effect in the signal ratio, with a control signal flat (not every such curve was filed as active); inconclusive = small, poorly fitted or top-dose-only effect, or effect the other way, or a change in a side signal; inactive = flat fitted curve, though single readings scatter; the % refers to the signal ratio. Potencies of inconclusive entries are doubtful fits and often do not repeat.
% is set by controls: 0 for no effect and ±100 for the full control effect; potency is the fitted concentration of half-maximal effect.

Experiment: qHTS Assay for Lipid Storage Modulators in Drosophila S3 Cells
Conditions: BODIPY lipid droplet fluorescence, 18-24 h, cells fed with added oleic acid; lipid storage change, negative = inhibition: at 46.1 µM (top of the series) unless noted
Procedure, shortened: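 Drosophila S3 cells got compounds at several concentrations plus oleic acid (400 uM solution). Laser-scanning cytometry with 488 nm excitation read lipid droplets at 500-530 nm and cells at 575-640 nm. Percent activity was relative to 20 uM Triacsin C.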
In the case of COc1cccc(-c2cc(C(=O)N3CCN(Cc4ccccc4)CC3)no2)c1, the lipid storage change, negative = inhibition is reported as inconclusive: -45.2%.
In the case of COc1ccccc1-c1cc(C(=O)NC(C)c2ccccc2)no1 (stereo not drawn), the Potency is reported as inconclusive: 6.51 µM [falling, partial curve].
In the case of O=C(CSCc1ccc(F)cc1)Nc1nc2c(s1)CCCC2, the lipid storage change, negative = inhibition is reported as inconclusive: 33.6%.
With COc1ccc(/C(C)=N\NC(=O)c2ccc(-c3ccccc3)cc2)c(F)c1 the lipid storage change, negative = inhibition was inconclusive: 25.8%.
With Cc1c(Cl)c([N+](=O)[O-])nn1CC(=O)NCc1ccco1 the lipid storage change, negative = inhibition was inconclusive: 14.1%.
In the case of O=C(O)Cc1csc(-c2cccc(Oc3ccccc3)c2)n1, the Potency is reported as inconclusive: 0.517 µM [falling, partial curve, poor fit].
With CC1CCCCN1CCCNC(=O)c1ccc(Br)cc1 (stereo not drawn) the lipid storage change, negative = inhibition was inconclusive: 1.9%.
For COc1ccc(-c2nc3nc(C)c(Cc4ccccc4)c(=O)n3[nH]2)cc1, the lipid storage change, negative = inhibition was inconclusive: 50.7%.
In the case of Cc1ccnc(NS(=O)(=O)c2ccc(NC(=O)Cc3ccccc3)cc2)n1, the lipid storage change, negative = inhibition is reported as inconclusive: 12.1%.
In the case of CCN(CC)C(=O)COc1coc(CN2CCN(c3cccc(Cl)c3)CC2)cc1=O, the lipid storage change, negative = inhibition is reported as inconclusive: -182%.
For Cc1cc(-c2ccccc2)nn1-c1nc2c(c(=O)[nH]c(=O)n2C)n1C, the Potency was inconclusive: 20.6 µM [activator, single point].
For CCS(=O)(=O)N1CCN(c2cnn(-c3ccccc3)c(=O)c2Cl)CC1, the lipid storage change, negative = inhibition was inconclusive: -8.6%.
With COc1ccc(C(=O)c2nc3c(n2O)CCCC3)cc1OC the Potency was inconclusive: 23.1 µM [falling, single point].
In the case of COC(=O)Cc1ccc(NC(=S)NCc2ccco2)cc1, the lipid storage change, negative = inhibition is reported as inconclusive: -50.4% [at 0.00295 µM].
With Cc1cccc(CSc2ccc3nnc(-c4ccccn4)n3n2)c1 the Potency was inconclusive: 25.9 µM [falling, single point].
For Cc1ccccc1NCC(=O)N/N=C/C(Br)=C/c1ccccc1, the lipid storage change, negative = inhibition was inconclusive: 123%.
In the case of S=c1[nH]ncn1/N=C/c1ccccc1, the lipid storage change, negative = inhibition is reported as inconclusive: 9.09%.
In the case of O=C(NCC1CCCO1)c1ccc2[nH]c3c(c2c1)CCCC3 (stereo not drawn), the lipid storage change, negative = inhibition is reported as inconclusive: 22.9%.
With Fc1ccc(C(c2nnnn2C2CCCC2)N2CCN(Cc3ccccc3)CC2)cc1 (stereo not drawn) the lipid storage change, negative = inhibition was inconclusive: 15.3%.
In the case of O=C(CSCC(=O)c1ccccc1)Nc1ccccc1Cl, the lipid storage change, negative = inhibition is reported as inconclusive: 10.8%.
For COc1ccc(/C(N)=N/O)c(OC)c1, the Potency was inconclusive: 18.4 µM [cytotoxic, partial curve].
For CC1CN(CC(=O)Nc2ccc([N+](=O)[O-])cc2Br)CC(C)O1 (stereo not drawn), the Potency was inconclusive: 0.731 µM [falling, full curve].
For Cn1c(SCC(=O)NC2CC2)nnc1-c1ccco1, the Potency was inconclusive: 1.16 µM [falling, full curve, poor fit].
For O=C(c1ccco1)N1CCN(C2=NS(=O)(=O)c3ccccc32)CC1, the lipid storage change, negative = inhibition was inconclusive: 21.2%.
In the case of CCOC(=O)c1c(-c2ccc(-c3ccccc3)cc2)csc1NC(=O)CCN1CCOCC1, the lipid storage change, negative = inhibition is reported as inconclusive: -23.3%.
With Cc1cccc(Nc2nnc(SCC(=O)Nc3cccc(S(=O)(=O)N4CCCCC4)c3)s2)c1 the Potency was inconclusive: 29.1 µM [falling, single point].
With CSc1nc2ccc(NC(=O)C3CC(=O)N(Cc4ccco4)C3)cc2s1 (stereo not drawn) the lipid storage change, negative = inhibition was inconclusive: 16%.
With COc1ccc(N2CCN(C(=O)c3cccc(NS(=O)(=O)c4cccc(F)c4)c3)CC2)cc1 the Potency was inconclusive: 11.6 µM [activator, single point].
In the case of CN(C)S(=O)(=O)c1ccc2c(c1)C(CC(=O)O)OC2=O (stereo not drawn), the lipid storage change, negative = inhibition is reported as inconclusive: -11.6%.
In the case of COc1ccc(C(C)=O)cc1CSc1ccc(S(=O)(=O)N2CCCCC2)cn1, the lipid storage change, negative = inhibition is reported as inconclusive: -1.66%.
With CCOc1ccc(S(=O)(=O)N2CCC(C(=O)NCc3ccccn3)CC2)cc1Cl the Potency was inconclusive: 6.51 µM [activator, full curve, poor fit].
For CCCc1[nH]nc2c1C(c1ccc(OC)c(Cn3nnc4ccccc43)c1)C(C#N)=C(N)O2 (stereo not drawn), the lipid storage change, negative = inhibition was inconclusive: 18.3%.
With COc1ccc(S(=O)(=O)NNC(=O)Nc2ccc(F)cc2F)c(OC)c1 the lipid storage change, negative = inhibition was inconclusive: -50.3% [cytotoxic] [at 0.00295 µM].
In the case of C#CCn1c(=NC(=O)CN2C(=O)CCC2=O)sc2cc(S(N)(=O)=O)ccc21, the lipid storage change, negative = inhibition is reported as inconclusive: -12.4%.
In the case of CC(C)(C)C(=O)Nc1ccccc1-c1nc2ccccc2[nH]c1=O, the Potency is reported as inconclusive: 3.66 µM [activator, full curve].
For CCc1c(C)[nH]c2ccc(OC)cc2c1=S, the lipid storage change, negative = inhibition was inconclusive: 36.6%.
For CCOc1ccccc1C(=O)N(Cc1cccs1)C1CCS(=O)(=O)C1 (stereo not drawn), the Potency was inconclusive: 20.6 µM [falling, partial curve, poor fit].
In the case of CCCC(=O)NCCc1nc2ccccc2n1C, the Potency is reported as inconclusive: 29.1 µM [falling, single point].
In the case of C#CCOc1nc(Nc2cccc([N+](=O)[O-])c2)nc(OCC#C)n1, the lipid storage change, negative = inhibition is reported as inconclusive: 22.1%.
With CCOc1cccc(C(=O)Nc2cc(-c3nn4c(C)nnc4s3)ccc2C)c1 the lipid storage change, negative = inhibition was inconclusive: 27.1%.
With Cc1cc(NC(=O)CSc2ccccc2)no1 the lipid storage change, negative = inhibition was inconclusive: -35.3%.
With O=C1/C(=C/c2ccco2)CCc2ccccc21 the Potency was inconclusive: 1.16 µM [activator, partial curve].
In the case of Cc1ccc(-n2c(SCC(N)=O)nc3c(c2=O)C2(CCCC2)Cc2ccccc2-3)cc1, the lipid storage change, negative = inhibition is reported as inconclusive: 19.8%.
With CCOC(=O)C(CCCCP(=O)(c1ccccc1)c1ccccc1)(NC(C)=O)C(=O)OCC the lipid storage change, negative = inhibition was inconclusive: 18.1%.
For CCOC(=O)COc1ccc(S(=O)(=O)N2CCN(c3ccc(F)cc3)CC2)cc1, the lipid storage change, negative = inhibition was inconclusive: -58.6%.
With CCOC(=O)C1=C(C)NC(=S)N(C(C)=O)C1c1ccc(OC)c(OC)c1 (stereo not drawn) the Potency was inconclusive: 2.91 µM [activator, partial curve, poor fit].
With COc1ccc(NC(=O)c2ccc(NC(=O)c3ccco3)cc2)c(OC)c1 the lipid storage change, negative = inhibition was inconclusive: -16.5%.
With CSCCC(NC(=O)COc1ccccc1)C(=O)N1CCCCC1 (stereo not drawn) the Potency was inconclusive: 3.26 µM [activator, partial curve, poor fit].
